Results are given in words; binding and its absence hold for the method and conditions named. For some assays here: Binding calls can cover weak binding; strength is not graded here.
T1: MUS-81 (C. elegans) (UniProt P91153)
T1 sequence: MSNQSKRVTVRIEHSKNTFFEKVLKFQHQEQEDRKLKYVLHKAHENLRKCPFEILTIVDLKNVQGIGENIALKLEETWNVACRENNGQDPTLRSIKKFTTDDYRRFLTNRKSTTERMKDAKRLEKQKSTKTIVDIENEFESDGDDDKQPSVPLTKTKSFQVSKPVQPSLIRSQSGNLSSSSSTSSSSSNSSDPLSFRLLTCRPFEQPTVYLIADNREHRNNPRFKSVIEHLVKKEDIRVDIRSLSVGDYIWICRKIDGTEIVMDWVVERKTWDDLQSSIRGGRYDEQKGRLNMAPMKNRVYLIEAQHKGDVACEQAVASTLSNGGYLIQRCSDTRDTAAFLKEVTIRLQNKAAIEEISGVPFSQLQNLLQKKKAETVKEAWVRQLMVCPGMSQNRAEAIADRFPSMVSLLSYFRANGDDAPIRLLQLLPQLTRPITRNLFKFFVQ

Chains of the proteins cited; added tags and fusions are not shown. Lines headed by an entry give the natural chain unless they say otherwise; changes in a name come on top.
UniProt Q22145: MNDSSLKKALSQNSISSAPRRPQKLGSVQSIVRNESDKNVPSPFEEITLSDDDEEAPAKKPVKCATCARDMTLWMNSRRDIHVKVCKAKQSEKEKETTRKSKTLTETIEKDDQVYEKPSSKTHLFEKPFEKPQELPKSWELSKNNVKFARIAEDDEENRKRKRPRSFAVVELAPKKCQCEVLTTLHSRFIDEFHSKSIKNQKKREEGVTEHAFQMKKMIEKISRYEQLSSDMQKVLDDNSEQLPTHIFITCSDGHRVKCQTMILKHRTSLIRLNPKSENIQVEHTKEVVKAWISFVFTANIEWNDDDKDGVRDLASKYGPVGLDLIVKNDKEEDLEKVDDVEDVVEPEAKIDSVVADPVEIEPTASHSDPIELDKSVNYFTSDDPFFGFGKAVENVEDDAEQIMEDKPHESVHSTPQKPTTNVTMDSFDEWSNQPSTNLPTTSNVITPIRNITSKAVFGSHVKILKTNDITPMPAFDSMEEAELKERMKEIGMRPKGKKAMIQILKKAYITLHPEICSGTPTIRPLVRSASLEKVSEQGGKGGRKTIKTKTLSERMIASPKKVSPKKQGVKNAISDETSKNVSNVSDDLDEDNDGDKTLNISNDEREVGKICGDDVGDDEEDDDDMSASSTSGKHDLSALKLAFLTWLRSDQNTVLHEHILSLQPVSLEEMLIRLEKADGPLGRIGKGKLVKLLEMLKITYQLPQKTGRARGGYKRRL


Columns and labels:
Experiment in all cases: two-hybrid; matrix-based, all pair-wise combinations; Gal4 DB-X (pVV212) in MATalpha Y8930 mated with AD-Y (pVV213) in MATa Y8800; diploids scored by growth on SC-Leu-Trp-His plates at 30°C; vector alone as negative control
MUS-81 (C. elegans) = target: T1, MUS-81 (C. elegans)
XPF-1 (C. elegans) = XPF-1 (C. elegans) (UniProt G5EBZ1)
HIM-18 (C. elegans) = HIM-18 (C. elegans) (UniProt Q22145)
EME-1 (C. elegans) = target: EME-1 (C. elegans)
ERCC-1 (C. elegans) = ERCC-1 (C. elegans) (UniProt Q93456)

Molecule	binding (MUS-81 (C. elegans))	binding (XPF-1 (C. elegans))	binding (HIM-18 (C. elegans))	other results
ERCC-1 (from UniProt Q93456)		binds		
GEN-1 (protein, UniProt Q22418 1-434) MTINGIWEWANHVVRKVPNETMRDKTLSIDGHIWLYESLKGCEAHHQQTPNSYLVTFFTRIQRLLELKIIPIVVFDNINASSSAHESKDQNEFVPRKRRSFGDSPFTNLVDHVYKTNALLTELGIKVIIAPGDGEAQCARLEDLGVTSGCITTDFDYFLFGGKNLYRFDFTAGTSSTACLHDIMHLSLGRMFMEKKVSRPHLISTAILLGCDYFQRGVQNIGIVSVFDILGEFGDDGNEEIDPHVILDRFASYVREEIPARSEDTQRKLRLRRKKYNFPVGFPNCDAVHNAITMYLRPPVSSEIPKIIPRAANFQQVAEIMMKECGWPATRTQKELALSIRRKVHLTTTVAQTRIPDFFAATKSKNFTPIVEPCESLEDYISANNTWMRKRKRSESPQILQHHAKRQVPDRKRSVKIRAFKPYPTDVIELGDSD		no binding	no binding	binding (EME-1 (C. elegans)): no binding; binding (ERCC-1 (C. elegans)): no binding

The next lines start with results.

binding (MUS-81 (C. elegans))	binding (XPF-1 (C. elegans))	binding (HIM-18 (C. elegans))	Molecule	other results
binds			EME-1 (C. elegans)	
no binding			RAD-54 (C. elegans)	
		binds	XPF-1 (from UniProt G5EBZ1)	

Reference: article PMC3715419
